From paper PMC11068011 (Science Advances, 2024)
Where a chain is given by its changes, count along the chain named. No constants are given. Whether binding was seen depends on the method and setting. Binding seen in cells or lysates may run through a third protein. Some entries that bind do so weakly or less than the wild type. For some of these results: Where a sequence is shown, tags or fusion partners need not be part of it.

By UniProt entry, the sequences of proteins in these tests, tags left out.
UniProt Q6ZNE5: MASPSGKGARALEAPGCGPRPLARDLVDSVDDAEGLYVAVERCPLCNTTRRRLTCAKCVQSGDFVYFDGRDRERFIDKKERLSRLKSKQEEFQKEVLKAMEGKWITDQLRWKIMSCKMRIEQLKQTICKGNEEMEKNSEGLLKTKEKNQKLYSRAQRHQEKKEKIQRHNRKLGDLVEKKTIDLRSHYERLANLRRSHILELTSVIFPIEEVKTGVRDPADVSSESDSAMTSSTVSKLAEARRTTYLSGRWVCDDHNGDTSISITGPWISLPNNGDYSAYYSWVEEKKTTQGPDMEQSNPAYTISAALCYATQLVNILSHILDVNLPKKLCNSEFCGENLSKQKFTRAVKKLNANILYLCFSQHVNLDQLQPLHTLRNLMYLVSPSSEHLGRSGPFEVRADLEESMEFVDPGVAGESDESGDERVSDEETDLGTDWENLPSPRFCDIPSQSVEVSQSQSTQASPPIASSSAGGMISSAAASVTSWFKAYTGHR

T1: p47 ∆UBA (46 to 370), FLAG-tagged (human) (UniProt Q9UNZ2)
T1 sequence: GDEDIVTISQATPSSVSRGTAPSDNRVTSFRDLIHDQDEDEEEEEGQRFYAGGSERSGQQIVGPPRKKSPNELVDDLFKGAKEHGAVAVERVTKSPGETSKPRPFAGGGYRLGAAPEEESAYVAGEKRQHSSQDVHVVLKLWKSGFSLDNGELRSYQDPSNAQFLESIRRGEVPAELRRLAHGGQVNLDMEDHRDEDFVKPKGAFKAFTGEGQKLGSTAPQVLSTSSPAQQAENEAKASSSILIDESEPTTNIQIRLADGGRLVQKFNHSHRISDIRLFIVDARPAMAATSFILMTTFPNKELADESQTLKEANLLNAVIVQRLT

T2: p47 V15A/L34A/Y42A (VLY) mutant, FLAG-tagged (human) (UniProt Q9UNZ2)
T2 sequence: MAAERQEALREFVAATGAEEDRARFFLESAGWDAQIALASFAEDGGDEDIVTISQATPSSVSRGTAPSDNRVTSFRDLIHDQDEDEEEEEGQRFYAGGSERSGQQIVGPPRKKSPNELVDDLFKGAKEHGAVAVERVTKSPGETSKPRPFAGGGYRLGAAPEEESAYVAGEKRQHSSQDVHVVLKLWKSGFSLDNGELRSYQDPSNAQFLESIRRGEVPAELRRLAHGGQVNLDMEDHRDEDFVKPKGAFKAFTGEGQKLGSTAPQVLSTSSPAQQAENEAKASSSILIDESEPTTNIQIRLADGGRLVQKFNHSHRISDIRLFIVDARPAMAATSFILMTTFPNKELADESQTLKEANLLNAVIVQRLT

T3: FLAG-tagged full-length p47 (wild type) (human) (UniProt Q9UNZ2)
T3 sequence: T2 sequence with A15V, A34L, A42Y

B1: purified WT p37 (natural protein, human, UniProt Q14CS0 1-331, looked up)
chain: MAEGGGPEPGEQERRSSGPRPPSARDLQLALAELYEDEVKCKSSKSNRPKATVFKSPRTPPQRFYSSEHEYSGLNIVRPSTGKIVNELFKEAREHGAVPLNEATRASGDDKSKSFTGGGYRLGSSFCKRSEYIYGENQLQDVQILLKLWSNGFSLDDGELRPYNEPTNAQFLESVKRGEIPLELQRLVHGGQVNLDMEDHQDQEYIKPRLRFKAFSGEGQKLGSLTPEIVSTPSSPEEEDKSILNAVVLIDDSVPTTKIQIRLADGSRLIQRFNSTHRILDVRNFIVQSRPEFAALDFILVTSFPNKELTDESLTLLEADILNTVLLQQLK
notes: p37 (UBXN2B), human, wild type, from pGEX-6P-1 p37; also called p37 WT; p37WT; source: E. coli Rosetta 2 BL21 (DE3), purified (glutathione sepharose, eluted by PreScission cleavage)

Assays:
[1] = molecular target: ATG14L, endogenous in HeLa cells (human (endogenous in HeLa)) (UniProt Q6ZNE5); assay: co-IP; Endogenous ATG14L immunoprecipitated (mouse anti-ATG14L, Dynabeads Protein G) from control, p37 KO or p37-Clover-overexpressing HeLa cells; 20 mM tris pH 7.4, 2 mM MgCl2, 200 mM NaCl, 0.5% NP-40
[2] = molecular target: T1, p47 ∆UBA (46 to 370), FLAG-tagged (human); assay: co-IP; Anti-FLAG M2 magnetic beads, 1 hour at 4°C, from lysates of HeLa cells expressing FLAG-tagged p47 (WT or mutant) and p37-Clover; 50 mM tris pH 7.4, 2 mM MgCl2, 150 mM NaCl, 0.5% NP-40, 10% glycerol; the p47-p37 interaction was also seen in VCP-depleted cells (fig. S2C)
[3] = molecular target: T2, p47 V15A/L34A/Y42A (VLY) mutant, FLAG-tagged (human); assay: as above
[4] = molecular target: T3, FLAG-tagged full-length p47 (wild type) (human); assay: as above

Row | Molecule | binding [1] | binding [2] | binding [3] | binding [4]
1 | Valosin-containing protein (VCP), endogenous in HeLa cells (from UniProt P55072 1-806) | binds |  |  | 
2 | B1 |  | binds | binds | binds
